Measurements reported in PubChem BioAssay AID1224830 (NIAID, 2016).
Shown is one part, drawn at random, of about 18,000 deposited reagents. About 2,900 of all reagents (16%) were called active. 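Calls are made per well; low scores hint the gene aids the LPS response, high scores that it dampens it.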 A number with no mark means an inactive call. Repeated entries: four replicate wells of each siRNA pool.

- Test: 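Genes whose knock-down alters the TNF-alpha reporter response to LPS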 (primary screen)
- Cells: human THP-1 monocytic leukaemia cells, TNF dual-luciferase reporter clone, PMA-differentiated to macrophage-like cells
- Reagent: siRNA pool against human genes, 50 nM
- Duration: LPS for 4 h, given about 3 days after siRNA transfection
- Challenge: bacterial LPS (TLR4 ligand), 10 ng/ml
- Read-out: 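Ratio of firefly to renilla light, scaled to the plate median and expressed as a robust z-score per replicate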
- Scale: TNF reporter robust z-score: higher = stronger TNF reporter response to LPS
- Rule for the call: 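a well is active when its z-score exceeds 2.8 or falls below -1.5; control wells carry no call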

LRRC37B (leucine rich repeat containing 37B)
- TNF reporter robust z-score: -0.01

LRRC37B (leucine rich repeat containing 37B)
- TNF reporter robust z-score: 0.68

LRRC37B (leucine rich repeat containing 37B)
- TNF reporter robust z-score: 0.53

LRRC37B (leucine rich repeat containing 37B)
- TNF reporter robust z-score: 2.03

UGT1A10 (UDP glucuronosyltransferase family 1 member A10)
- TNF reporter robust z-score: 1.75

UGT1A10 (UDP glucuronosyltransferase family 1 member A10)
- TNF reporter robust z-score: 1.62

UGT1A10 (UDP glucuronosyltransferase family 1 member A10)
- TNF reporter robust z-score: 0.2

UGT1A10 (UDP glucuronosyltransferase family 1 member A10)
- TNF reporter robust z-score: 2

AS3MT (arsenite methyltransferase)
- TNF reporter robust z-score: -1.16

AS3MT (arsenite methyltransferase)
- TNF reporter robust z-score: 0.04

AS3MT (arsenite methyltransferase)
- TNF reporter robust z-score: -0.92

AS3MT (arsenite methyltransferase)
- TNF reporter robust z-score: -0.54

SCRN3 (secernin 3)
- TNF reporter robust z-score: 0.12

SCRN3 (secernin 3)
- TNF reporter robust z-score: -0.12

SCRN3 (secernin 3)
- TNF reporter robust z-score: -0.6

SCRN3 (secernin 3)
- TNF reporter robust z-score: 0.23

HGD (homogentisate 1,2-dioxygenase)
- TNF reporter robust z-score: -0.61

HGD (homogentisate 1,2-dioxygenase)
- TNF reporter robust z-score: 0.27

HGD (homogentisate 1,2-dioxygenase)
- TNF reporter robust z-score: 0.35

HGD (homogentisate 1,2-dioxygenase)
- TNF reporter robust z-score: -0.84

NRARP (NOTCH regulated ankyrin repeat protein)
- TNF reporter robust z-score: -0.49

NRARP (NOTCH regulated ankyrin repeat protein)
- TNF reporter robust z-score: -0.66

NRARP (NOTCH regulated ankyrin repeat protein)
- TNF reporter robust z-score: -1.16

NRARP (NOTCH regulated ankyrin repeat protein)
- TNF reporter robust z-score: -0.47

BRK1 (BRICK1 subunit of SCAR/WAVE actin nucleating complex)
- TNF reporter robust z-score: 0.86

BRK1 (BRICK1 subunit of SCAR/WAVE actin nucleating complex)
- TNF reporter robust z-score: 2.47

BRK1 (BRICK1 subunit of SCAR/WAVE actin nucleating complex)
- TNF reporter robust z-score: 0.65

BRK1 (BRICK1 subunit of SCAR/WAVE actin nucleating complex)
- TNF reporter robust z-score: 1.94

COX7A2 (cytochrome c oxidase subunit 7A2)
- TNF reporter robust z-score: -0.89

COX7A2 (cytochrome c oxidase subunit 7A2)
- TNF reporter robust z-score: -0.57

COX7A2 (cytochrome c oxidase subunit 7A2)
- TNF reporter robust z-score: -0.77

COX7A2 (cytochrome c oxidase subunit 7A2)
- TNF reporter robust z-score: -0.82

TLDC2 (TBC/LysM-associated domain containing 2)
- TNF reporter robust z-score: 0.34

TLDC2 (TBC/LysM-associated domain containing 2)
- TNF reporter robust z-score: 0.15

TLDC2 (TBC/LysM-associated domain containing 2)
- TNF reporter robust z-score: 0.27

RPL14 (ribosomal protein L14)
- TNF reporter robust z-score: -0.32

RPL14 (ribosomal protein L14)
- TNF reporter robust z-score: -0.62

RPL14 (ribosomal protein L14)
- TNF reporter robust z-score: -1.13

RPL14 (ribosomal protein L14)
- TNF reporter robust z-score: -0.55

LMOD1 (leiomodin 1)
- TNF reporter robust z-score: -0.18

LMOD1 (leiomodin 1)
- TNF reporter robust z-score: -0.26

LMOD1 (leiomodin 1)
- TNF reporter robust z-score: 0.59

LMOD1 (leiomodin 1)
- TNF reporter robust z-score: -0.76

CX3CL1 (C-X3-C motif chemokine ligand 1)
- TNF reporter robust z-score: -0.17

CX3CL1 (C-X3-C motif chemokine ligand 1)
- TNF reporter robust z-score: -0.03

CX3CL1 (C-X3-C motif chemokine ligand 1)
- TNF reporter robust z-score: -0.94

CX3CL1 (C-X3-C motif chemokine ligand 1)
- TNF reporter robust z-score: 0.36

An excerpt from the list above, as a working copy:
HGD (homogentisate 1,2-dioxygenase)
- TNF reporter robust z-score: 0.27

HGD (homogentisate 1,2-dioxygenase)
- TNF reporter robust z-score: 0.35
